Assay results published in the supplement of paper PMC12819154, “High-throughput peptide-centric local stability assay extends protein–ligand identification to membrane proteins, tissues and bacteria” (Nature Structural & Molecular Biology, 2025).
The list shows a part of the results. Most values lie at the level of the controls, where differences are scatter.

Sequences of proteins named here, by UniProt entry; tags and fusion partners are left off. A change or cut given only in a name is not applied to a line headed by its entry.
UniProt Q80U87: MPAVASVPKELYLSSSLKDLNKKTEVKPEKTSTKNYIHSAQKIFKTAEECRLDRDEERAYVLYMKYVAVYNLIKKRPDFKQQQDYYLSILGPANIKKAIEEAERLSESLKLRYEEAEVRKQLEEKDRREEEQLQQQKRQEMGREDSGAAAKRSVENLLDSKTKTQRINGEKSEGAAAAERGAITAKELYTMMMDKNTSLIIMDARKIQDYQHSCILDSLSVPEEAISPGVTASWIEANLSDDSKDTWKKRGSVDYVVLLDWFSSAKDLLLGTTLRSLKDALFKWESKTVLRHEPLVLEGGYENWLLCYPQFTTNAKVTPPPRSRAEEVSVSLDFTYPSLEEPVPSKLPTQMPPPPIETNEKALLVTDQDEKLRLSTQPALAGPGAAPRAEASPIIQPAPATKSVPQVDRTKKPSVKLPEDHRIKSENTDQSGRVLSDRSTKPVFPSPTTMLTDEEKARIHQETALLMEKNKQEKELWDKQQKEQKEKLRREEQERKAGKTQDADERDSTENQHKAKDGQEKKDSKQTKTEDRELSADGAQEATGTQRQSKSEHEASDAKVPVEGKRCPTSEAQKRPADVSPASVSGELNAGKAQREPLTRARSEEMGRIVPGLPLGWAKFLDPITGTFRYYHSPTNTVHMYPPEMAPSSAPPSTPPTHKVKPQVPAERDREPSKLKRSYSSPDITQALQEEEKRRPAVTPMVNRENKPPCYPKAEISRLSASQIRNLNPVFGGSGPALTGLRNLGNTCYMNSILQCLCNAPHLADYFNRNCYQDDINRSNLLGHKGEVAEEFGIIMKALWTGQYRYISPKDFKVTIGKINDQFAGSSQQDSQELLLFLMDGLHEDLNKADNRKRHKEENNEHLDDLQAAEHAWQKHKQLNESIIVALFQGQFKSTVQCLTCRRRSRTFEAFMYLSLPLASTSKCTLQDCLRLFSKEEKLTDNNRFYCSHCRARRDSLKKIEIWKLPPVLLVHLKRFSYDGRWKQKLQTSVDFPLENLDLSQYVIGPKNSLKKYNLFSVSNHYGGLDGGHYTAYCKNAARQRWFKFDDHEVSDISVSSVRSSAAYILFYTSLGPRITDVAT
UniProt Q7TQK5, whole entry: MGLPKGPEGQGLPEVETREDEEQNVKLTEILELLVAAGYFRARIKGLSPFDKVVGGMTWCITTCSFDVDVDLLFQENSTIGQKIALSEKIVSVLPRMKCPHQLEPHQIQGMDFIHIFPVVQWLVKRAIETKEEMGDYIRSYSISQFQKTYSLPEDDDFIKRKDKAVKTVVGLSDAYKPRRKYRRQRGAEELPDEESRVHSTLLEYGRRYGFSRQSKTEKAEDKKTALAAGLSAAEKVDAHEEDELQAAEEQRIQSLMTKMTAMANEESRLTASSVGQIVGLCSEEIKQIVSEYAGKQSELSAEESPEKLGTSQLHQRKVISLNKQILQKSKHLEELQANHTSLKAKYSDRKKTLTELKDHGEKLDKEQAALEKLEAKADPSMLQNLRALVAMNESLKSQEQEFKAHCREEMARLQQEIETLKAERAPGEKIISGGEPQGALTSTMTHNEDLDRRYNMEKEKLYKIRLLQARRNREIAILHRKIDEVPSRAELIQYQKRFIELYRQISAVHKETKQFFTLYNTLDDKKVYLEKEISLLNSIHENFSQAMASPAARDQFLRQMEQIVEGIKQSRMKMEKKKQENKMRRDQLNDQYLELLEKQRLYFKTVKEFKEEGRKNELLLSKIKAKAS
UniProt Q6ZPK0: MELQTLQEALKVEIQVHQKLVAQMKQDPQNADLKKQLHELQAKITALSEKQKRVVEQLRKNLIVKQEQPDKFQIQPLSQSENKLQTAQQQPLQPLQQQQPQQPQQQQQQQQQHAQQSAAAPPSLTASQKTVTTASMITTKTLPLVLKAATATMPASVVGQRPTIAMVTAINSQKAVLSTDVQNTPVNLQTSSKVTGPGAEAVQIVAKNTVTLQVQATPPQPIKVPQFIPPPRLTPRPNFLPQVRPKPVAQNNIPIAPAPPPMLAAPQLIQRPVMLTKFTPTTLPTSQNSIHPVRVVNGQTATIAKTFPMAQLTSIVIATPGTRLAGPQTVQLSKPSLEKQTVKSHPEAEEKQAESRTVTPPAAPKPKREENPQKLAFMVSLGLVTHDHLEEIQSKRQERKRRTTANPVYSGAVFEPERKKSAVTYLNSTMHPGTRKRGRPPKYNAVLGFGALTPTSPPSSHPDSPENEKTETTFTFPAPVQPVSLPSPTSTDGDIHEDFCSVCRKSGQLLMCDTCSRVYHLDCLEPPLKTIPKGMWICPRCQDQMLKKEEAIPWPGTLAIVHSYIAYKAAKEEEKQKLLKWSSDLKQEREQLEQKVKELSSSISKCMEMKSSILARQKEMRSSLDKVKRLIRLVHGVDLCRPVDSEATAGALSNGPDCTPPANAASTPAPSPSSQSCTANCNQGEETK
UniProt Q7TQI3, whole entry: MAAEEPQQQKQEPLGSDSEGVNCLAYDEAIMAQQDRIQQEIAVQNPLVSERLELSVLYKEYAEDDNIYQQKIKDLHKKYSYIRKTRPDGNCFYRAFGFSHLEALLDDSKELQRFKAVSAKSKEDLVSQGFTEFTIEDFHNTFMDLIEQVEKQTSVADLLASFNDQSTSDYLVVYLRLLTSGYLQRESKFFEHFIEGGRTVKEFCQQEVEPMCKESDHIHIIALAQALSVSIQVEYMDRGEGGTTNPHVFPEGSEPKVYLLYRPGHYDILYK
UniProt Q7TSZ8: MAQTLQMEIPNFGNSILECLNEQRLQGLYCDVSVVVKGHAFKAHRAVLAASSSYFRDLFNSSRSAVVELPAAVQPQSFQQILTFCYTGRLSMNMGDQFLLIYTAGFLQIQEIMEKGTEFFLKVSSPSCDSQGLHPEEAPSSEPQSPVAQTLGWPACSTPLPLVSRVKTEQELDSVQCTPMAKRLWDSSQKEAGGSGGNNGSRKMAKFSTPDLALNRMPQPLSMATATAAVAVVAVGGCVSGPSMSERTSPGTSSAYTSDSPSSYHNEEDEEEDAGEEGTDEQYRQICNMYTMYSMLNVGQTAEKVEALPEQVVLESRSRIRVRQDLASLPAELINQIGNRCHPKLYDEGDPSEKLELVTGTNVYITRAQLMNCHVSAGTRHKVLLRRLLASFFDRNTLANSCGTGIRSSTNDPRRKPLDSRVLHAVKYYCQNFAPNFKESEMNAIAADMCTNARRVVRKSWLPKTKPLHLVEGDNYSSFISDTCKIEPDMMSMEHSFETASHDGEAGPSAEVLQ
UniProt Q80UU2: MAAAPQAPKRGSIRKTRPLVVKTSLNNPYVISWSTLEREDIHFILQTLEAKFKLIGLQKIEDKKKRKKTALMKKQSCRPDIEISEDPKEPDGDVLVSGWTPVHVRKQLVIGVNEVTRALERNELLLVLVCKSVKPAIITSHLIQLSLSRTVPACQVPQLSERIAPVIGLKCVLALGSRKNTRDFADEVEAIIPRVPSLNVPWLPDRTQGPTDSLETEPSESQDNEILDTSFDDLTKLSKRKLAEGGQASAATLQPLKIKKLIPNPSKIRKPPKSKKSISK
UniProt Q7TSH2: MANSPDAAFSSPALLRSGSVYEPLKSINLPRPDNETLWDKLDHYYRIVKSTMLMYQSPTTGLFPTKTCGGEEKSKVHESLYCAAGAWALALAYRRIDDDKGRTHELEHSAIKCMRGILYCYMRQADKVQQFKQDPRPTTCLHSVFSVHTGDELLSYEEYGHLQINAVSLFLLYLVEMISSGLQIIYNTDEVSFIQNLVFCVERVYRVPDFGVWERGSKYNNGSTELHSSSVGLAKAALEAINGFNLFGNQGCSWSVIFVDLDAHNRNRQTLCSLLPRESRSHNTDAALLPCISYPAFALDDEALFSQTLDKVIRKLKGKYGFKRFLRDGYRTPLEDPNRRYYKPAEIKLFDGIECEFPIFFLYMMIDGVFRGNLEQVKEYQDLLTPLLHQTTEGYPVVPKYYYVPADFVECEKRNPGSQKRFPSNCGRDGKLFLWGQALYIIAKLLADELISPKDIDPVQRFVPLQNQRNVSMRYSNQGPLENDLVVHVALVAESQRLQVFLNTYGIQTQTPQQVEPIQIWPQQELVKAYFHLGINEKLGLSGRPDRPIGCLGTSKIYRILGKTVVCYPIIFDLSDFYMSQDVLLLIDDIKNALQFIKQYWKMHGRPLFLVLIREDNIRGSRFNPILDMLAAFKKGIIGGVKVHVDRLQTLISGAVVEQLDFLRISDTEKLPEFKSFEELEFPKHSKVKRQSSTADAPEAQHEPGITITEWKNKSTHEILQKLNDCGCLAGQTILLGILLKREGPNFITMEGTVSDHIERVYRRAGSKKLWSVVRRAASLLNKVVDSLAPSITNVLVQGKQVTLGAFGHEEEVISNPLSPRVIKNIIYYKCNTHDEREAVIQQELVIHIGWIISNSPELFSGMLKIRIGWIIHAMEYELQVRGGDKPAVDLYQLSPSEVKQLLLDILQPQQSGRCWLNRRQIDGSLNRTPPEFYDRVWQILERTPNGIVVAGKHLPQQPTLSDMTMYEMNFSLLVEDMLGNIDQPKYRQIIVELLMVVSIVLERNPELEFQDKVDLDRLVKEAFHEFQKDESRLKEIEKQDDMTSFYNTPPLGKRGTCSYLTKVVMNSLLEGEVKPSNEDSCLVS
UniProt Q71FD5: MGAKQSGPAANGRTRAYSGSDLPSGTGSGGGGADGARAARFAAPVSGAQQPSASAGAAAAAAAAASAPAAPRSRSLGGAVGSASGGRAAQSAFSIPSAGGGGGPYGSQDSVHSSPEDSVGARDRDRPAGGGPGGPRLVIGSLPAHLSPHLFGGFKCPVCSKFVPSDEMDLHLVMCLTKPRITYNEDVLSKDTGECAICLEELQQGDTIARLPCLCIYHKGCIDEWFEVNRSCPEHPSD
UniProt Q80TM9: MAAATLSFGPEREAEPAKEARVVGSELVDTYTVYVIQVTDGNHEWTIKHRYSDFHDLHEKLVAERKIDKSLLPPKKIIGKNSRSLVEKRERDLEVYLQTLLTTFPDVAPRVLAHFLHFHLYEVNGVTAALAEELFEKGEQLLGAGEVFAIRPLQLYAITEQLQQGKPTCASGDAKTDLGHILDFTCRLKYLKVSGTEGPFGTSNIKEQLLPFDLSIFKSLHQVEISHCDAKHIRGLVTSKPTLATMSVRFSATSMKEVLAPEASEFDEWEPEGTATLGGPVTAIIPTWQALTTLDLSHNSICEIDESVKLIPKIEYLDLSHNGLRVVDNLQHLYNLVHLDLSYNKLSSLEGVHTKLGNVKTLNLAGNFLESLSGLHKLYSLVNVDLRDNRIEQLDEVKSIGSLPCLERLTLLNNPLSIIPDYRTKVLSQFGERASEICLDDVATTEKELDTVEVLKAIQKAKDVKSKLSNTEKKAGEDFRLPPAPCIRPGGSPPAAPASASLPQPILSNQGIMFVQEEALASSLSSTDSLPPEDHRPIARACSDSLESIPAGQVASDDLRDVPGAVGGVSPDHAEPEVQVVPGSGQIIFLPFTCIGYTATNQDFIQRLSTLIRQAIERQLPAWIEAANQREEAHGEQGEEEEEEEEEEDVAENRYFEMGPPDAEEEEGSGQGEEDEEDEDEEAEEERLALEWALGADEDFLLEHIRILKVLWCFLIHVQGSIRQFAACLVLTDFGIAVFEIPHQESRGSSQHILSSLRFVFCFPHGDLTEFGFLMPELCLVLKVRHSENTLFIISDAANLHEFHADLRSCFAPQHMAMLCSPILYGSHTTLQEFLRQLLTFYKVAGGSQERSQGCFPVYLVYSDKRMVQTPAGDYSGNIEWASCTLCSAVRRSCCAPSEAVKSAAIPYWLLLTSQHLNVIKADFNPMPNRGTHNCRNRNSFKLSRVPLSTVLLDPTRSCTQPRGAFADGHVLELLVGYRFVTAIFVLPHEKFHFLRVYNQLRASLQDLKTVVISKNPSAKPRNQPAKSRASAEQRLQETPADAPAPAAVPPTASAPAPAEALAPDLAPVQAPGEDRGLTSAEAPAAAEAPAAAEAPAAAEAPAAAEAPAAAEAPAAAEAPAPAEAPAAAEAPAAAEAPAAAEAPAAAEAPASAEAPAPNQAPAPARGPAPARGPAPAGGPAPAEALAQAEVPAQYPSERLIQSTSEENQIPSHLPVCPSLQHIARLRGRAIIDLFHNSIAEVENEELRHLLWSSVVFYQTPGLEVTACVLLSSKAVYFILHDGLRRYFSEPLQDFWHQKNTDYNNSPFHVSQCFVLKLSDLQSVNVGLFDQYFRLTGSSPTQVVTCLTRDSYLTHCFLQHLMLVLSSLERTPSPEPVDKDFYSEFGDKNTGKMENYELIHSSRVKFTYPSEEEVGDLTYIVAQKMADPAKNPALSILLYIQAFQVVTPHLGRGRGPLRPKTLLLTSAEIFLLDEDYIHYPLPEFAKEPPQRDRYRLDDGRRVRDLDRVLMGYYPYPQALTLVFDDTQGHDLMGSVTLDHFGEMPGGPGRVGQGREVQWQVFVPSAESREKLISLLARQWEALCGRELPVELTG

What follows are targets tested with CN[C@@H]1C[C@H]2O[C@@](C)([C@@H]1OC)n1c3ccccc3c3c4c(c5c6ccccc6n2c5c31)C(=O)NC4 [staurosporine] (assay: log2 fold change of tryptic peptide abundance, ligand vs vehicle (limited proteolysis) (log2 ratio); higher = more trypsin-susceptible (destabilized)). Settings: ligand concentration: 20 uM; sample: mouse liver crude lysate; replicate design: treated separately.

Target	log2 fold change
UniProt Q80U87 (peptide sequence: RPADVSPASVSGELNAGK, peptide start residue: 575)	-0.303
UniProt Q78HU3 (peptide sequence: EYNYGFVVEK, peptide start residue: 251)	0.498
UniProt Q6ZQ58 (peptide sequence: FQHPSHELLK, peptide start residue: 849)	0.238
UniProt Q7TQK5 (peptide sequence: KIDEVPSRAELIQYQK, peptide start residue: 482)	-0.212
UniProt Q80TN7 (peptide sequence: QNLEETMSSLR, peptide start residue: 273)	-0.428
UniProt Q7TMF2 (peptide sequence: LKNYYKK, peptide start residue: 102)	-0.506
UniProt Q80TQ2 (peptide sequence: IYGYVCATK, peptide start residue: 646)	-0.689
UniProt Q7TPH6 (peptide sequence: EHMVGIIFSR, peptide start residue: 4021)	0.765
UniProt Q6ZPK0 (peptide sequence: VTGPGAEAVQIVAK, peptide start residue: 194)	-0.258
UniProt Q7TQI3 (peptide sequence: VYLLYRPGHYDILYK, peptide start residue: 257)	-0.275
UniProt Q80UW0 (peptide sequence: ETWLFSR, peptide start residue: 134)	0.223
UniProt Q7TNG5 (peptide sequence: LLVSADDFGKVHLFSYPCCQPR, peptide start residue: 587)	0.254
UniProt Q7TT00 (peptide sequence: LLDFLQK, peptide start residue: 263)	-0.452
UniProt Q7M753 (peptide sequence: LVYFEPK, peptide start residue: 200)	-0.184
UniProt Q7TPN9 (peptide sequence: HTVGCGEMAR, peptide start residue: 389)	0.501
UniProt Q80UN1 (peptide sequence: MLCSNAEGASLR, peptide start residue: 230)	-0.3
UniProt Q80TP3 (peptide sequence: WSSGVGGSGGGSSGR, peptide start residue: 132)	-0.18
UniProt Q7TSZ8 (peptide sequence: VKTEQELDSVQCTPMAK, peptide start residue: 166)	-0.272
UniProt Q80UP3 (peptide sequence: TDLQGDTPR, peptide start residue: 888)	-0.149
UniProt Q7TSH3 (peptide sequence: SNLVFLTR, peptide start residue: 798)	0.552
UniProt Q80UU2 (peptide sequence: KLAEGGQASAATLQPLK, peptide start residue: 241)	-0.713
UniProt Q6ZQE4 (peptide sequence: IQGEVETQK, peptide start residue: 347)	-0.407
UniProt Q7TSH2 (peptide sequence: AYFHLGINEK, peptide start residue: 529)	0.959
UniProt Q71FD5 (peptide sequence: DRPAGGGPGGPR, peptide start residue: 125)	-0.421
UniProt Q7TPD0 (peptide sequence: YKEHPEALSCLLLQLRR, peptide start residue: 832)	0.458
UniProt Q80SU7 (peptide sequence: SQIMNSLLSK, peptide start residue: 1072)	0.365
UniProt Q76KJ5 (peptide sequence: TALGNLGVSVK, peptide start residue: 203)	-0.289
UniProt Q80TM9 (peptide sequence: IEYLDLSHNGLR, peptide start residue: 314)	-0.785
UniProt Q6ZWV7 (peptide sequence: YKPLDLR, peptide start residue: 78)	0.141

2 successive entries already listed, for reference:
Target	log2 fold change
UniProt Q80UN1 (peptide sequence: MLCSNAEGASLR, peptide start residue: 230)	-0.3
UniProt Q80TP3 (peptide sequence: WSSGVGGSGGGSSGR, peptide start residue: 132)	-0.18
